The values below come from doi:10.1101/2025.11.17.685403.

The assay addresses T1, RFS1 (C. elegans) made in E. coli with a His-MBP tag, tag cleaved (C. elegans) (UniProt P34348).
T1 sequence: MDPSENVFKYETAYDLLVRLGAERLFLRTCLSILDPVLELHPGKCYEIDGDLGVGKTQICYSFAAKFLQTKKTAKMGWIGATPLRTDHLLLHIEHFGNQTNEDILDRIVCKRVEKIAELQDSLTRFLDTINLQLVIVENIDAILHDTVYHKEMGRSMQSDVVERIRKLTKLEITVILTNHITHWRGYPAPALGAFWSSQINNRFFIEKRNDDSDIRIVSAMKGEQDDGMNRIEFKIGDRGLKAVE
The experiment in a line: SEC. (Size exclusion chromatography separates by hydrodynamic size, large species first.)

These are yes or no findings as the source states them, for the method shown. Binding can be weak; no strength is given. Where a sequence is shown, tags or fusion partners need not be part of it.

Regarding “RIP1 (C. elegans) made in E. coli with a His-MOCR tag, tag cleaved”, the binding result is “binds”.
